From the supplement of paper PMC5355238
Counter-ions that a name gives are not always drawn. ± gives the standard deviation of the averaged measurements. The list shows a part of the results. Repeats are few or missing, and single values can be far off.

Each compound was assayed on Reh (assay: S-phase gammaH2AX median, Z-score vs plate median (drug alone); higher = more S-phase DNA damage). Details: MK1775 concentration 0 nM; 10 µM; 4 h.

Compound	S-phase gammaH2AX median (Z-score)
N[C@H](C(=O)O)[C@H]1C[C@@H]1C(=O)O [(2S,1'S,2'S)-2-(carboxycyclopropyl)glycine]	-0.0233
CCc1cc(-c2n[nH]c(C)c2-c2ccc3c(c2)OCCO3)c(O)cc1O	-0.0128
COc1ncc(-c2ccc3nccc(-c4ccnnc4)c3c2)cc1NS(=O)(=O)c1ccc(F)cc1F	-0.263
N=C(N)NCCCCN [Agmatine sulfate]	-0.0175
CCCCNc1ccc(C(=O)OCCN(C)C)cc1 [Tetracaine hydrochloride]	0.407
COc1ccc(NC(=O)c2ccc(-c3ccc(-c4noc(C)n4)cc3C)cc2)cc1N1CCN(C)CC1	-0.182
CCCCCOC(=O)Nc1nc(=O)n([C@@H]2O[C@H](C)[C@@H](O)[C@H]2O)cc1F [Capecitabine (Xeloda)]	0.208
COc1ccccc1N1CCN(CCCCNC(=O)c2ccc3ccccc3c2)CC1	0.0447
O=C1[C@H](CC[C@H](O)c2ccc(F)cc2)[C@@H](c2ccc(O)cc2)N1c1ccc(F)cc1 [Ezetimibe (Zetia)]	-0.0561
Cc1cnc(C(=O)NCCc2ccc(S(=O)(=O)NC(=O)NC3CCCCC3)cc2)cn1 [Glipizide]	0.107
CC(C)NC[C@H](O)COc1cccc2[nH]ccc12 [S(-)-Pindolol]	0.0654 ± 0.086
COc1ccc(C2CC(c3ccccc3)=NN2c2ccc(S(N)(=O)=O)cc2)cc1 (stereo not given)	-0.0522
CCCC(=O)[O-].[Na+] [Sodium butyrate]	-0.0653
Cc1cc(Nc2cc(N3CCN(C)CC3)nc(/C=C/c3ccccc3)n2)n[nH]1	-0.152
COC(=O)C1=C(C)NC(C)=C(C(=O)OCCN(C)Cc2ccccc2)C1c1cccc([N+](=O)[O-])c1 (stereo not given) [Nicardipine hydrochloride]	-0.111
Cc1ccccc1CNc1ncnc2c1ncn2[C@@H]1O[C@H](CO)[C@@H](O)[C@H]1O [Metrifudil]	-0.66
CC1(C)CNc2cc(NC(=O)c3cccnc3NCc3ccncc3)ccc21 [Motesanib Diphosphate]	-0.0398
CC(C)NCC(O)c1ccc(O)c(O)c1 (single isomer, unassigned; (-)) [(-)-Isoproterenol hydrochloride]	0.0661
Cc1ccccc1C(OCCN(C)C)c1ccccc1 (stereo not given) [Orphenadrine hydrochloride]	-0.0781
CCCCCCCCCCCCCCCCCC(=O)NCC(COP(=O)([O-])OCC[N+](C)(C)C)OCC (racemic) [rac-2-Ethoxy-3-octadecanamido-1-propylphosphocholine]	-0.0819
C=CCn1c(=O)c2cnc(Nc3ccc(N4CCN(C)CC4)cc3)nc2n1-c1cccc(C(C)(C)O)n1	4.25
CC(=O)OCC1=C(C(=O)O)N2C(=O)[C@@H](NC(=O)Cc3cccs3)[C@H]2SC1 [Cephalothin sodium]	-0.0388

Compound	S-phase gammaH2AX median (Z-score)
O=C1CCC(N2C(=O)c3ccccc3C2=O)C(=O)N1 (stereo not given) [(?)-Thalidomide]	-0.214
CNCCCN1c2ccccc2CCc2ccccc21 [Desipramine hydrochloride]	-0.12
CC(N)C(=O)OC(C)(C)Cc1ccc(Cl)cc1 (stereo not given) [Alaproclate hydrochloride]	-0.00971
CN(CCOc1ccc(C[C@H](Nc2ccccc2C(=O)c2ccccc2)C(=O)O)cc1)c1ccccn1	0.161
CCC(C)n1ncn(-c2ccc(N3CCN(c4ccc(OCC5COC(Cn6cncn6)(c6ccc(Cl)cc6Cl)O5)cc4)CC3)cc2)c1=O (stereo not given) [Itraconazole (Sporanox)]	-0.0367
CCCn1cnc2c1c(=O)n(CCCCC(C)=O)c(=O)n2C [Propentofylline]	-0.0166
CCCCCCCCCCCCCCSCC(=O)O [Tetradecylthioacetic acid]	-0.0601
O=C(O)CN(CCN(CC(=O)O)CC(=O)O)CCN(CC(=O)O)CC(=O)O [Diethylenetriaminepentaacetic acid]	0.12
CC(C)(CO)Cc1cc(C(C)(C)C)c(O)c(C(C)(C)C)c1	0.0854
C#CCN(C)CCCOc1ccc(Cl)cc1Cl [Clorgyline hydrochloride]	0.0781
CC(C)NCC(O)c1cc(O)cc(O)c1 (stereo not given) [Metaproterenol hemisulfate]	-0.596
CC(=O)/C(C)=N/O [2,3-Butanedione monoxime]	0.0757
O=[N+]([O-])c1cc2nc(O)c(O)nc2cc1[N+](=O)[O-]	-0.164
COc1ccc(CCNC[C@@H](O)c2ccc(O)cc2)cc1OC [R(-)-Denopamine]	-0.574
O=C(CCCN1CCC(O)(c2cccc(C(F)(F)F)c2)CC1)c1ccc(F)cc1 [Trifluperidol hydrochloride]	-0.574
CN/C(=N\c1ccc(C2=NNC(=O)CC2C)cc1)NC#N (stereo not given)	0.151
COc1ccccc1N1CCN(CCCNc2cc(=O)n(C)c(=O)n2C)CC1 [Urapidil hydrochloride]	-0.147
Oc1cc2c(c(Cl)c1O)CCNCC2c1ccccc1 (stereo not given) [(?)-6-Chloro-PB hydrobromide]	-0.38
O=C(O)CCCCC1CCSS1 (stereo not drawn) [(?)-alpha-Lipoic Acid]	0.174
COCC(=O)O[C@]1(CCN(C)CCCc2nc3ccccc3[nH]2)CCc2cc(F)ccc2[C@@H]1C(C)C [Mibefradil dihydrochloride]	-0.27
O=c1c2ccccc2nc2n1CCc1c-2[nH]c2ccccc12 [Rutaecarpine]	-0.00473
CN(C)c1ccccc1CN1CCCN(Cc2ccccc2N(C)C)C1c1ccncc1	-0.0112

Compound	S-phase gammaH2AX median (Z-score)
OC[C@H]1O[C@@H](n2cnc3c2N=CNC[C@H]3O)C[C@@H]1O [Pentostatin]	0.0514
S=C(NCc1ccc2c(c1)OCO2)N1CCN(c2ncnc3c2oc2ccccc23)CC1 [Amuvatinib (MP-470)]	0.08
Cc1c(CCOc2ccc(C(=O)O)cc2)c2cc(Cl)ccc2n1C(c1ccccc1)c1ccccc1	0.174
CC1(C)CCC2=C(O1)c1ccccc1C(=O)C2=O [beta-Lapachone]	-0.0346
Cn1cnc([N+](=O)[O-])c1Sc1ncnc2[nH]cnc12 [Azathioprine (Azasan, Imuran)]	0.147
Cn1cnc([N+](=O)[O-])c1Sc1ncnc2[nH]cnc12 [Azathioprine]	0.0175
COc1c2c(nc3ccccc13)OC(C(C)(O)CO)C2 (stereo not given) [Dubinidine]	0
CC(C)C(=O)Nc1ccc([N+](=O)[O-])c(C(F)(F)F)c1 [Flutamide (Eulexin)]	0.0197
CC(C)C(=O)Nc1ccc([N+](=O)[O-])c(C(F)(F)F)c1 [Flutamide]	-0.0063
CC1COc2c(N3CCN(C)CC3)c(F)cc3c(=O)c(C(=O)O)cn1c23 (stereo not given) [Ofloxacin]	0.3
CCOC(=O)Nc1ccc(NCc2ccc(F)cc2)nc1N [Flupirtine maleate]	-0.0882
O=C(O)/C=C/c1cnc[nH]1 [4-Imidazoleacrylic acid]	0.133
Clc1ccc(Nc2nnc(Cc3ccncc3)c3ccccc23)cc1 [Vatalanib dihydrochloride (PTK787)]	-0.0708
Cn1cc(-c2ccc3nnc(Sc4ccc5ncccc5c4)n3n2)cn1	-0.0367
Cc1cc(O)c2c(c1)C(=O)c1cc(O)cc(O)c1C2=O [Emodin]	0.198
COC(=O)c1ccc2c(C(=Nc3ccc(N(C)C(=O)CN4CCN(C)CC4)cc3)c3ccccc3)c(O)[nH]c2c1 [BIBF1120 (Vargatef)]	-0.0561
Nc1ccc2c3c(cccc13)C(=O)NC2=O [4-Amino-1,8-naphthalimide]	0.458
CN(C)CCCN1c2ccccc2CCc2ccccc21 [Imipramine hydrochloride]	0.101
NC(CO)C(=O)NNCc1ccc(O)c(O)c1O (stereo not given) [Benserazide hydrochloride]	-0.0233
CCCn1c(=O)c2[nH]c(-c3ccc(OCC(=O)Nc4ccc(C#N)cc4)cc3)nc2n(CCC)c1=O	0.00473
O=C1C(SCCO)=C(SCCO)C(=O)c2ccccc21	10.6

Another view of part of the listing above.
Compound | S-phase gammaH2AX median (Z-score)
CCOC(=O)Nc1ccc(NCc2ccc(F)cc2)nc1N [Flupirtine maleate] | -0.0882
O=C(O)/C=C/c1cnc[nH]1 [4-Imidazoleacrylic acid] | 0.133
Nc1ccc2c3c(cccc13)C(=O)NC2=O [4-Amino-1,8-naphthalimide] | 0.458
O=C1C(SCCO)=C(SCCO)C(=O)c2ccccc21 | 10.6
